Measured values from paper PMC8036907.

Chains of the proteins cited; added tags and fusions are not shown. Lines headed by an entry give the natural chain unless they say otherwise; changes in a name come on top.
UniProt Q15554: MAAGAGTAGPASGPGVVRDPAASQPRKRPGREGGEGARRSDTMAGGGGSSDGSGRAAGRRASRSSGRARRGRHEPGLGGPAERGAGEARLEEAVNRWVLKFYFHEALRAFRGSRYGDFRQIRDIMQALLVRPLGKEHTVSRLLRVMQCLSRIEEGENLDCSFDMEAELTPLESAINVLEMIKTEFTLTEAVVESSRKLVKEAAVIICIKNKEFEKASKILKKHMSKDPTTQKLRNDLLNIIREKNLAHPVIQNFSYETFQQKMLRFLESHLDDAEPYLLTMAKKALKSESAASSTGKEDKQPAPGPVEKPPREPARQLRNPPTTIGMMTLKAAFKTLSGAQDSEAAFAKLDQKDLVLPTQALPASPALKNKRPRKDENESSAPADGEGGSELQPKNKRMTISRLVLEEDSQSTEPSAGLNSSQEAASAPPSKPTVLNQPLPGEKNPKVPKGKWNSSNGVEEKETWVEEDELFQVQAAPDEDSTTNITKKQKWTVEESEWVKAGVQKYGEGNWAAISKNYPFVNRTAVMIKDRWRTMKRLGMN
UniProt O70133: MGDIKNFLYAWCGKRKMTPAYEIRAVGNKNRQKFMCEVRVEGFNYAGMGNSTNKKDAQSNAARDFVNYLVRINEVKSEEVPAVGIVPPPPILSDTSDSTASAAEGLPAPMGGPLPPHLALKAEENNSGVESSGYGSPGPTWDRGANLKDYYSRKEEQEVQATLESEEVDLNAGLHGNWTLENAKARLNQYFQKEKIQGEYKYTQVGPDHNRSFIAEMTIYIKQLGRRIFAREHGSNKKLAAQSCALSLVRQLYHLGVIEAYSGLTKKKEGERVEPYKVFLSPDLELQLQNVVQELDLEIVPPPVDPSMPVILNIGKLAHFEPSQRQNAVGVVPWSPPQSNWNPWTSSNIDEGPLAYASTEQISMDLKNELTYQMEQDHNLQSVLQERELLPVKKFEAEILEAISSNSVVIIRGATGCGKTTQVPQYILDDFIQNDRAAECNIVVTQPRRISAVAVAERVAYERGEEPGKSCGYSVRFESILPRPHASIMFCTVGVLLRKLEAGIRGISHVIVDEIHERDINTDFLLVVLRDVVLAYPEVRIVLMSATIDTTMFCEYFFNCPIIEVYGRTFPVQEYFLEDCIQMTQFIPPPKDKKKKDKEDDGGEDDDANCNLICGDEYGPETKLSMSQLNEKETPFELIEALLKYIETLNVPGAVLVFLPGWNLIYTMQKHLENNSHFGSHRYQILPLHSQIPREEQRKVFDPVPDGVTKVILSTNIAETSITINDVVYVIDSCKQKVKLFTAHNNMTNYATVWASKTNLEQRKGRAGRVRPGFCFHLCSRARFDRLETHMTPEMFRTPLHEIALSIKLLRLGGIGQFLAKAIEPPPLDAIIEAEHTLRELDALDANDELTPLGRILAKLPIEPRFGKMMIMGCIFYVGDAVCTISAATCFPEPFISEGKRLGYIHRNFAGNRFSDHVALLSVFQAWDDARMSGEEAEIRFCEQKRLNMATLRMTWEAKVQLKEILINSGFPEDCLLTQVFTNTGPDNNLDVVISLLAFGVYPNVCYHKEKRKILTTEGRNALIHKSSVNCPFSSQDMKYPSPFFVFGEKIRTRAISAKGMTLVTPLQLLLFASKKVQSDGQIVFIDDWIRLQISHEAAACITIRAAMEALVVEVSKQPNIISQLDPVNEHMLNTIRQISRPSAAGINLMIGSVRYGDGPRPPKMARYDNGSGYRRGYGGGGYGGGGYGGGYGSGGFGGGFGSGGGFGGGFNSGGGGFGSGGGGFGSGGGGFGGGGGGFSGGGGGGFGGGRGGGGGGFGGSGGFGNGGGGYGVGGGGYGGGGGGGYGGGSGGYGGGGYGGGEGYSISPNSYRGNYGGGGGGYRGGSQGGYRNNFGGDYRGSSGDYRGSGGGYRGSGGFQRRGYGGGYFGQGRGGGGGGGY
UniProt E9PV04: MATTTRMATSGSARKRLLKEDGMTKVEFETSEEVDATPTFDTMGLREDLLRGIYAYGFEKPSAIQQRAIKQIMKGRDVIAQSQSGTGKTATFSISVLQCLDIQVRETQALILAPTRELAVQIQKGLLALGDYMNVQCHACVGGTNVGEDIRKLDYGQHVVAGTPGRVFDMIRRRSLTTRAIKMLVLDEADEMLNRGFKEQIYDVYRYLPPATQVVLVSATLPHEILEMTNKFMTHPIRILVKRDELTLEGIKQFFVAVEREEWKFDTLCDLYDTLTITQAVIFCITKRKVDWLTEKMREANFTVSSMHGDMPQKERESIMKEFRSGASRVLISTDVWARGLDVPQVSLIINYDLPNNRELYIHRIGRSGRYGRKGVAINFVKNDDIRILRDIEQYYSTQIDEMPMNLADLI
UniProt O88569: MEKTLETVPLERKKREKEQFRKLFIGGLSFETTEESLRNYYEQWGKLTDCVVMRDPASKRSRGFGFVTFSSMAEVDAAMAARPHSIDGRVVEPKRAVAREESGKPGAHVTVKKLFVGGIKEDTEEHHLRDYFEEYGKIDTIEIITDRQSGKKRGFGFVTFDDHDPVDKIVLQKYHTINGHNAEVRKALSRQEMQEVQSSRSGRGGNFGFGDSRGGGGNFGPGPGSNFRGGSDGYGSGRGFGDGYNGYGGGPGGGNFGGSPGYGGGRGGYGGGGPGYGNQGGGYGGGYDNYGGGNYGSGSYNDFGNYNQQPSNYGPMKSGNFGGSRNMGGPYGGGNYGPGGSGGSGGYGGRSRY
UniProt Q8BG05: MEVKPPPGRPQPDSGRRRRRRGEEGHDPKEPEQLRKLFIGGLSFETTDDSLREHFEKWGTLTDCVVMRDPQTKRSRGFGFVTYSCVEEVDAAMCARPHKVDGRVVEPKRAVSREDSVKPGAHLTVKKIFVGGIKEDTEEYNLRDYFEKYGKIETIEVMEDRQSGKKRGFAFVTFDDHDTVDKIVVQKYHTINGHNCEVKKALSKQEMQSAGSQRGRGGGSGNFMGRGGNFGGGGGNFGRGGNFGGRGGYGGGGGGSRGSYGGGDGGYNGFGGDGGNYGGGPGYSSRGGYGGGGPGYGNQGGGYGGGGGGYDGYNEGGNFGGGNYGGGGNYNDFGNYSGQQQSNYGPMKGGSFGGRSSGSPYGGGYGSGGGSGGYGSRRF
UniProt Q99KP6: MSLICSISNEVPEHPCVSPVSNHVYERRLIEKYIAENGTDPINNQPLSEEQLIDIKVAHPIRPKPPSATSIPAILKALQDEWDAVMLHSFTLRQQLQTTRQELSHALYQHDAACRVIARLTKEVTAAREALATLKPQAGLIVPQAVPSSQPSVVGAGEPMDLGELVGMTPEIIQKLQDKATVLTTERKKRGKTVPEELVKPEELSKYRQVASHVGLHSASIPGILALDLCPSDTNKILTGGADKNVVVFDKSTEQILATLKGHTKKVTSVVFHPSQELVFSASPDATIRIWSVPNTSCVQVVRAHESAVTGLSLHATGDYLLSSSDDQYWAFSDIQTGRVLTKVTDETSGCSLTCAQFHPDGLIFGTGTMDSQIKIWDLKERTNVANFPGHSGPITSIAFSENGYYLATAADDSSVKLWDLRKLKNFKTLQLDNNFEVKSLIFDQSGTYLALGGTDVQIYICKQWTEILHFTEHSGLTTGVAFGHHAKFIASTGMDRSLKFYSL
UniProt Q6PDM2: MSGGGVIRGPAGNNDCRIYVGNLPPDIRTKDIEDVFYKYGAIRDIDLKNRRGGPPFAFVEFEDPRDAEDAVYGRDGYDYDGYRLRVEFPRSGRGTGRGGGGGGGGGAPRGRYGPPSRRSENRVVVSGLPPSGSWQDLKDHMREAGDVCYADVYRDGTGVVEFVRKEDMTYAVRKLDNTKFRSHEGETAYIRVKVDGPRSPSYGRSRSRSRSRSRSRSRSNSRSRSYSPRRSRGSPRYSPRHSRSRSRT
UniProt P62320: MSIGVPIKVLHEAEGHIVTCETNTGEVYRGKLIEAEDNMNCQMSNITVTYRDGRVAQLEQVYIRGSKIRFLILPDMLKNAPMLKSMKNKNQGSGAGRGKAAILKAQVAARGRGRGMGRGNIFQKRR
UniProt Q6P4T2: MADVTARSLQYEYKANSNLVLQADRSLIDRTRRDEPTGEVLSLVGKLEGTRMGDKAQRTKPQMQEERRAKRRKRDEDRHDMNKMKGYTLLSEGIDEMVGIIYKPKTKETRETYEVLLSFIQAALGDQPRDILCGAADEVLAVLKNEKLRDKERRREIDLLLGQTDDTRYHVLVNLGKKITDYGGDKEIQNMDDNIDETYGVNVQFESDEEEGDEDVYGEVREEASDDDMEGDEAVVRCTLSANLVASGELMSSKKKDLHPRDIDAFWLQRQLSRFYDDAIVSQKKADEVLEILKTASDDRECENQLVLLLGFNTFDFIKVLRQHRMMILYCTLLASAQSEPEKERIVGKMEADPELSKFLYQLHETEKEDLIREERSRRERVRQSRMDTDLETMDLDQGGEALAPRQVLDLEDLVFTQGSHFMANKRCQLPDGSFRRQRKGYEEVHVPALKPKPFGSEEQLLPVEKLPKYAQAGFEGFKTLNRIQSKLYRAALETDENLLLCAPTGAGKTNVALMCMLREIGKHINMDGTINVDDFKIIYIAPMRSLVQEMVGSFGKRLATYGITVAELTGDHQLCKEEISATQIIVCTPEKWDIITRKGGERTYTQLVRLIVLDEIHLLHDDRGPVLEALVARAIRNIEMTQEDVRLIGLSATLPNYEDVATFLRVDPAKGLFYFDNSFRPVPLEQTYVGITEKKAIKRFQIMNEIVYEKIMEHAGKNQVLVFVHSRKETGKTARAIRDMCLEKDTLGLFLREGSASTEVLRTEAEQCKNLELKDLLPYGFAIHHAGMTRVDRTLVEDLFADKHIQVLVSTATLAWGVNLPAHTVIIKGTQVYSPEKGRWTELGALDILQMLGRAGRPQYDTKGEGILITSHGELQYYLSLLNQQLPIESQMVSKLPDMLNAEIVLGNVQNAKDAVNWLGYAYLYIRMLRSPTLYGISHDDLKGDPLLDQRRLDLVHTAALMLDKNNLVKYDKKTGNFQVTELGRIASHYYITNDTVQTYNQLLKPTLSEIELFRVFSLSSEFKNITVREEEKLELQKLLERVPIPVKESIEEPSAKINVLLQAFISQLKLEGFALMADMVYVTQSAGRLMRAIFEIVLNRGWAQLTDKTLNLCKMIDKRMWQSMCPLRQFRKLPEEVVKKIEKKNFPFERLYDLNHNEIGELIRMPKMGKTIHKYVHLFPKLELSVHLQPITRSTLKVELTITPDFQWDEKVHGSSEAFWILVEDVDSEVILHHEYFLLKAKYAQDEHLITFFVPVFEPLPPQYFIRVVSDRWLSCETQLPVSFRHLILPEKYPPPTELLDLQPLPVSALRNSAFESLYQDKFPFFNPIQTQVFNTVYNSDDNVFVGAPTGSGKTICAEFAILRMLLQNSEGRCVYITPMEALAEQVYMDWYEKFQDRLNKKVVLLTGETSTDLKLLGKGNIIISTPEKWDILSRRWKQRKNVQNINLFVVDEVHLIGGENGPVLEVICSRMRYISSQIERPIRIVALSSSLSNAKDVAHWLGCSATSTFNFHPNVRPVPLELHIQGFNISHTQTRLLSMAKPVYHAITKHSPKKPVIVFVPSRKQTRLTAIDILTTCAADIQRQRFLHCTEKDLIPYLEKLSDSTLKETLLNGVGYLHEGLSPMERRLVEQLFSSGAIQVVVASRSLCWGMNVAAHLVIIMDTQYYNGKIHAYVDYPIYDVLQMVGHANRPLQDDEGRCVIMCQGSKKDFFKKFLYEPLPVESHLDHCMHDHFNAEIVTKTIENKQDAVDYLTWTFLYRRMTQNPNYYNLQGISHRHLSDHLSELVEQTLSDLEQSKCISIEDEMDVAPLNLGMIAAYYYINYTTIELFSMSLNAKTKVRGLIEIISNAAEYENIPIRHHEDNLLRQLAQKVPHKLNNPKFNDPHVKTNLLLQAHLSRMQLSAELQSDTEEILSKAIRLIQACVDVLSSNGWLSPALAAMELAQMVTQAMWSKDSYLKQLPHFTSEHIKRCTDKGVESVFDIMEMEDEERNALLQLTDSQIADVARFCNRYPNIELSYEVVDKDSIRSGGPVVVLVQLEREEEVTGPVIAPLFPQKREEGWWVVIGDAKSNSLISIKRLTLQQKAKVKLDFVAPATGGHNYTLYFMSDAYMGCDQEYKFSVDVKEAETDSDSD
UniProt Q921F2: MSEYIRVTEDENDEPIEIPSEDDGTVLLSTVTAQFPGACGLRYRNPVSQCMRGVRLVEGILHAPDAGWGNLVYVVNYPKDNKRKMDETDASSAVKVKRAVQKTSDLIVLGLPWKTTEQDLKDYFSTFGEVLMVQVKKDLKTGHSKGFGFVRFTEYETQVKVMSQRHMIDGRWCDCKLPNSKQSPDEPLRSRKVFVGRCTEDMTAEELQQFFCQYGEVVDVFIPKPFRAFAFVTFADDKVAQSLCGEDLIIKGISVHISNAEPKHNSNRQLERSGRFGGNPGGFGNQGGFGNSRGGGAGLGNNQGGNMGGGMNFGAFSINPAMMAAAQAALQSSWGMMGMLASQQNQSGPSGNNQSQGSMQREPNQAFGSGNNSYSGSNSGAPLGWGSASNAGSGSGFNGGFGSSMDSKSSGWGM

B1: Heterogeneous nuclear ribonucleoprotein L (protein, UniProt Q8R081 1-586)
chain: MSRRLLPRAEKRRRRLEQRQQPDEQLRRAGAMVKMAAAGGGGGGGRYYGGGNEGGRAPKRLKTENAGDQHGGGGGGGSGAAGGGGGENYDDPHKTPASPVVHIRGLIDGVVEADLVEALQEFGPISYVVVMPKKRQALVEFEDVLGACNAVNYAADNQIYIAGHPAFVNYSTSQKISRPGDSDDSRSVNSVLLFTILNPIYSITTDVLYTICNPCGPVQRIVIFRKNGVQAMVEFDSVQSAQRAKASLNGADIYSGCCTLKIEYAKPTRLNVFKNDQDTWDYTNPNLSGQGDPGSNPNKRQRQPPLLGDHPAEYGGPHGGYHSHYHDEGYGPPPPHYEGRRMGPPVGGHRRGPSRYGPQYGHPPPPPPPPDYGPHADSPVLMVYGLDQSKMNCDRVFNVFCLYGNVEKVKFMKSKPGAAMVEMADGYAVDRAITHLNNNFMFGQKMNVCVSKQPAIMPGQSYGLEDGSCSYKDFSESRNNRFSTPEQAAKNRIQHPSNVLHFFNAPLEVTEENFFEICDELGVKRPTSVKVFSGKSERSSSGLLEWDSKSDALETLGFLNHYQMKNPNGPYPYTLKLCFSTAQHAS
B2: Splicing factor, proline- and glutamine-rich (protein, UniProt Q8VIJ6 1-699)
chain: MSRDRFRSRGGGGGGFHRRGGGGGRGGLHDFRSPPPGMGLNQNRGPMGPGPGGPKPPLPPPPPHQQQQQPPPQQPPPQQPPPHQQPPPHQPPHQQPPPPPQESKPVVPQGPGSAPGVSSAPPPAVSAPPANPPTTGAPPGPGPTPTPPPAVPSTAPGPPPPSTPSSGVSTTPPQTGGPPPPPAGGAGPGPKPGPGPGGPKGGKMPGGPKPGGGPGMGAPGGHPKPPHRGGGEPRGGRQHHAPYHQQHHQGPPPGGPGPRTEEKISDSEGFKANLSLLRRPGEKTYTQRCRLFVGNLPADITEDEFKRLFAKYGEPGEVFINKGKGFGFIKLESRALAEIAKAELDDTPMRGRQLRVRFATHAAALSVRNLSPYVSNELLEEAFSQFGPIERAVVIVDDRGRSTGKGIVEFASKPAARKAFERCSEGVFLLTTTPRPVIVEPLEQLDDEDGLPEKLAQKNPMYQKERETPPRFAQHGTFEYEYSQRWKSLDEMEKQQREQVEKNMKDAKDKLESEMEDAYHEHQANLLRQDLMRRQEELRRMEELHSQEMQKRKEMQLRQEEERRRREEEMMIRQREMEEQMRRQREESYSRMGYMDPRERDMRMGGGGTMNMGDPYGSGGQKFPPLGGGGGIGYEANPGVPPATMSGSMMGSDMRTERFGQGGAGPVGGQGPRGMGPGTPAGYGRGREEYEGPNKKPRF
B3: Non-POU domain-containing octamer-binding protein (protein, UniProt Q99K48 1-473)
chain: MQSNKAFNLEKQNHTPRKHHQHHHQQHHQQQQQQQQQQPPPPIPANGQQASSQNEGLTIDLKNFRKPGEKTFTQRSRLFVGNLPPDITEEEMRKLFEKYGKAGEVFIHKDKGFGFIRLETRTLAEIAKVELDNMPLRGKQLRVRFACHSASLTVRNLPQYVSNELLEEAFSVFGQVERAVVIVDDRGRPSGKGIVEFSGKPAARKALDRCSEGSFLLTTFPRPVTVEPMDQLDDEEGLPEKLVIKNQQFHKEREQPPRFAQPGSFEYEYAMRWKALIEMEKQQQDQVDRNIKEAREKLEMEMEAARHEHQVMLMRQDLMRRQEELRRMEELHNQEVQKRKQLELRQEEERRRREEEMRRQQEEMMRRQQEGFKGTFPDAREQEIRMGQMAMGGAMGINNRGAMPPAPVPPGTPAPPGPATMMPDGTLGLTPPTTERFGQAATMEGIGAIGGTPPAFNRPAPGAEFAPNKRRRY
B4: rRNA 2′-O-methyltransferase fibrillarin (protein, UniProt P35550 1-327)
chain: MKPGFSPRGGGFGGRGGFGDRGGRGGGRGGRGGFGGGRGGFGGGGRGRGGGGGGFRGRGGGGGRGGGFQSGGNRGRGGGRGGKRGNQSGKNVMVEPHRHEGVFICRGKEDALVTKNLVPGESVYGEKRVSISEGDDKIEYRAWNPFRSKLAAAILGGVDQIHIKPGAKVLYLGAASGTTVSHVSDIVGPDGLVYAVEFSHRSGRDLINLAKKRTNIIPVIEDARHPHKYRMLIAMVDVIFADVAQPDQTRIVALNAHTFLRNGGHFVISIKANCIDSTASAEAVFASEVKKMQQENMKPQEQLTLEPYERDHAVVVGVYRPPPKVKN
B5: H/ACA ribonucleoprotein complex subunit DKC1 (protein, UniProt Q9ESX5 1-509)
chain: MADAEVITFPKKHKKKKDRKPLQEDDVAEIQHAEEFLIKPESKVAQLDTSQWPLLLKNFDKLNVRTAHYTPLPCGSNPLKREIGDYIRTGFINLDKPSNPSSHEVVAWIRRILRVEKTGHSGTLDPKVTGCLIVCIERATRLVKSQQSAGKEYVGIVRLHNAIEGGTQLSRALETLTGALFQRPPLIAAVKRQLRVRTIYESKMIEYDPERRLGIFWVSCEAGTYIRTLCVHLGLLLGVGGQMQELRRVRSGVMSEKDHMVTMHDVLDAQWLYDNHKDESYLRRVVYPLEKLLTSHKRLVMKDSAVNAICYGAKIMLPGLLRYEDGIEVNQEIVVITTKGEAICMAIALMTTAVISTCDHGIVAKIKRVIMERDTYPRKWGLGPKASQKKMMIKQGLLDKHGKPTDNTPATWKQDYIDYSDSGKNTLVTEAVQAPQLAAEAVNVIKRKRDSESESDETPTVPQLKEKKKKKDKKPKTVLESGGETGDGDNDTTKKKKKKKVKVVEEMSE
B6: DNA topoisomerase I (enzyme, UniProt Q04750 1-767)
chain: MSGDHLHNDSQIEADFRLNDSHKHKDKHKDREHRHKEHKKDKDKDREKSKHSNSEHKDSEKKHKEKEKTKHKDGSSEKHKDKHKDRDKERRKEEKIRAAGDAKIKKEKENGFSSPPRIKDEPEDDGYFAPPKEDIKPLKRLRDEDDADYKPKKIKTEDIKKEKKRKSEEEEDGKLKKPKNKDKDKKVAEPDNKKKKPKKEEEQKWKWWEEERYPEGIKWKFLEHKGPVFAPPYEPLPESVKFYYDGKVMKLSPKAEEVATFFAKMLDHEYTTKEIFRKNFFKDWRKEMTNDEKNTITNLSKCDFTQMSQYFKAQSEARKQMSKEEKLKIKEENEKLLKEYGFCVMDNHRERIANFKIEPPGLFRGRGNHPKMGMLKRRIMPEDIIINCSKDAKVPSPPPGHKWKEVRHDNKVTWLVSWTENIQGSIKYIMLNPSSRIKGEKDWQKYETARRLKKCVDKIRNQYREDWKSKEMKVRQRAVALYFIDKLALRAGNEKEEGETADTVGCCSLRVEHINLHPELDGQEYVVEFDFPGKDSIRYYNKVPVEKRVFKNLQLFMENKQPEDDLFDRLNTGILNKHLQDLMEGLTAKVFRTYNASITLQQQLKELTAPDENVPAKILSYNRANRAVAILCNHQRAPPKTFEKSMMNLQSKIDAKKDQLADARRDLKSAKADAKVMKDAKTKKVVESKKKAVQRLEEQLMKLEVQATDREENKQIALGTSKLNYLDPRITVAWCKKWGVPIEKIYNKTQREKFAWAIDMTDEDYEF

target: recombinant protein corresponding to udTRF2 (the long linker region of TRF2) (UniProt Q15554); assay: affinity purification with mass spectrometry; anti-udTRF2 antibodies on protein A Sepharose loaded with an excess of recombinant udTRF2, then mouse liver nuclear extract (DNase/RNase treated); bound proteins digested with trypsin and identified by LC-MALDI; controls: antibody only, beads only; only the target purified

binding, binds:
ATP-dependent RNA helicase A (DHX9) (from UniProt O70133 1-1380)
Eukaryotic translation initiation factor 4A3-like 1 (from UniProt E9PV04 1-411)
Heterogeneous nuclear ribonucleoprotein A2/B1 (from UniProt O88569 1-353)
Heterogeneous nuclear ribonucleoprotein A3 (from UniProt Q8BG05 1-379)
Heterogeneous nuclear ribonucleoprotein K (from UniProt P61979 1-463)
Pre-mRNA processing factor 19 (from UniProt Q99KP6 1-504)
Serine/arginine-rich splicing factor 1 (from UniProt Q6PDM2 1-248)
Small nuclear ribonucleoprotein Sm D3 (from UniProt P62320 1-126)
Small nuclear ribonucleoprotein U5 subunit 200 (from UniProt Q6P4T2 1-2136)
TAR DNA-binding protein 43 (from UniProt Q921F2 1-414)
B1
B2
B3
B4
B5
B6

These are yes or no findings as the source states them, for the method shown. Binding seen in cells or lysates may run through a third protein. These calls come from enrichment with a bait or labelling near it, and not all partners need be listed.
